# Laboratory results from patent US10101319B2, “Methods of detecting plasmodium infection” (Commonwealth Scientific and Industrial Research Organisation, priority 2013, dated 2018).
# Experiment: Breath chromatograms of patients with bacterially-induced fevers
# Type: in vivo, human
# Conditions: bacterially-induced fevers vs control group, 0.5 L breath
row,Structure (SMILES),Levels in breath of febrile non-malarial patients
1,"C/C=C/SC [EMP, (E)-1-Methylthio-1-propene]",very low and the same in fever and control groups
2,"CCCSC [MP, 1-Methylthio propane]",very low and the same in fever and control groups
3,"C/C=C\SC [ZMP, (Z)-1-Methylthio-1-propene]",very low and the same in fever and control groups
4,"C=CCSC [AMS, Allyl methyl sulphide]",very low and the same in fever and control groups

# Some compounds share one wording; it may come from a single statement.
